# The other results are listed elsewhere or left out.
# Columns and labels:
# Test in all cases: glycan array binding signal (z-score within array); higher = stronger binding
# Settings in all cases: glycan notation: IUPAC condensed, linker removed
# [1] = biological target: Gal(b1-4)GlcNAc(b1-2)Man(a1-3)[Gal(b1-4)GlcNAc(b1-2)Man(a1-6)]Man(b1-4)GlcNAc(b1-4)GlcNAc
# Outline: (§1)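 From the Consortium for Functional Glycomics database, 3228 arrays were curated, keeping only those whose protein sequence was available. Binding is given as a within-array Z-score averaged across arrays sharing a protein sequence and across linkers. Negative Z-scores can be read as non-binding.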
# [2] = biological target: Gal(b1-4)GlcNAc(b1-2)Man(a1-3)[Gal(b1-4)GlcNAc(b1-2)Man(a1-6)]Man(b1-4)GlcNAc(b1-4)[Fuc(a1-6)]GlcNAc
# Outline: as §1
# [3] = biological target: Gal(b1-4)GlcNAc(b1-2)Man(a1-3)[Gal(b1-4)GlcNAc(b1-2)][GlcNAc(b1-4)]Man(b1-4)GlcNAc(b1-4)GlcNAc
# Outline: as §1
# [4] = biological target: Gal(b1-4)GlcNAc(b1-2)Man(a1-3)[GlcNAc(b1-2)Man(a1-6)]Man(b1-4)GlcNAc(b1-4)GlcNAc
# Outline: as §1
# [5] = biological target: Gal(b1-4)GlcNAc(b1-2)Man(a1-3)[Man(a1-6)]Man(b1-4)GlcNAc(b1-4)GlcNAc
# Outline: as §1
# [6] = biological target: Gal(b1-4)GlcNAc(b1-2)Man(a1-6)Man(b1-4)GlcNAc(b1-4)GlcNAc
# Outline: as §1
# [7] = biological target: Gal(b1-4)GlcNAc(b1-2)Man(a1-6)[GlcNAc(b1-2)Man(a1-3)]Man(b1-4)GlcNAc(b1-4)GlcNAc
# Outline: as §1
# [8] = biological target: Gal(b1-4)GlcNAc(b1-2)Man(a1-6)[Man(a1-3)]Man(b1-4)GlcNAc(b1-4)GlcNAc
# Outline: as §1
# [9] = biological target: Gal(b1-4)GlcNAc(b1-2)[Gal(b1-4)GlcNAc(b1-4)]Man(a1-3)[Gal(b1-4)GlcNAc(b1-2)Man(a1-6)]Man(b1-4)GlcNAc(b1-4)GlcNAc
# Outline: as §1
# [10] = biological target: Gal(b1-4)GlcNAc(b1-2)[Gal(b1-4)GlcNAc(b1-4)]Man(a1-3)[Gal(b1-4)GlcNAc(b1-2)[Gal(b1-4)GlcNAc(b1-6)]Man(a1-6)]Man(b1-4)GlcNAc(b1-4)GlcNAc
# Outline: as §1
# [11] = biological target: Gal(b1-4)GlcNAc(b1-2)[Gal(b1-4)GlcNAc(b1-4)]Man(a1-3)[GlcNAc(b1-4)][Gal(b1-4)GlcNAc(b1-2)Man(a1-6)]Man(b1-4)GlcNAc(b1-4)GlcNAc
# Outline: as §1
# [12] = biological target: Gal(b1-4)GlcNAc(b1-2)[Gal(b1-4)GlcNAc(b1-4)]Man(a1-3)[GlcNAc(b1-4)][Gal(b1-4)GlcNAc(b1-2)[Gal(b1-4)GlcNAc(b1-6)]Man(a1-6)]Man(b1-4)GlcNAc(b1-4)GlcNAc
# Outline: as §1
# [13] = biological target: Gal(b1-4)GlcNAc(b1-2)[Gal(b1-4)GlcNAc(b1-6)]Man(a1-6)[Gal(b1-4)GlcNAc(b1-2)Man(a1-3)]Man(b1-4)GlcNAc(b1-4)GlcNAc
# Outline: as §1
# [14] = biological target: Gal(b1-4)GlcNAc(b1-2)[Gal(b1-4)GlcNAc(b1-6)]Man(a1-6)[GlcNAc(b1-4)][Gal(b1-4)GlcNAc(b1-2)Man(a1-3)]Man(b1-4)GlcNAc(b1-4)GlcNAc
# Outline: as §1
# [15] = biological target: Gal(b1-4)GlcNAc(b1-3)Gal(b1-3)GlcNAc
# Outline: as §1
# [16] = biological target: Gal(b1-4)GlcNAc(b1-3)Gal(b1-4)Glc
# Outline: as §1
# [17] = biological target: Gal(b1-4)GlcNAc(b1-3)Gal(b1-4)GlcNAc
# Outline: as §1
# [18] = biological target: Gal(b1-4)GlcNAc(b1-3)Gal(b1-4)GlcNAc(b1-3)Gal(b1-4)GlcNAc
# Outline: as §1
# [19] = biological target: Gal(b1-4)GlcNAc(b1-3)Gal(b1-4)[Fuc(a1-3)GlcNAc(b1-6)]Gal(b1-4)Glc
# Outline: as §1
# [20] = biological target: Gal(b1-4)GlcNAc(b1-3)Gal(b1-4)[Fuc(a1-3)]GlcNAc(b1-3)Gal(b1-4)[Fuc(a1-3)]GlcNAc
# Outline: as §1
# [21] = biological target: Gal(b1-4)GlcNAc(b1-3)GalNAc
# Outline: as §1
# [22] = biological target: Gal(b1-4)GlcNAc(b1-3)[Gal(b1-4)GlcNAc(b1-6)]Gal(b1-4)GlcNAc
# Outline: as §1
# [23] = biological target: Gal(b1-4)GlcNAc(b1-3)[Gal(b1-4)GlcNAc(b1-6)]GalNAc
# Outline: as §1
# [24] = biological target: Gal(b1-4)GlcNAc(b1-3)[GlcNAc(b1-6)]Gal(b1-4)GlcNAc
# Outline: as §1
# [25] = biological target: Gal(b1-4)GlcNAc(b1-6)Gal(b1-4)GlcNAc
# Outline: as §1
# [26] = biological target: Gal(b1-4)GlcNAc(b1-6)GalNAc
# Outline: as §1
# [27] = biological target: Gal(b1-4)GlcNAc(b1-6)[Gal(b1-3)]GalNAc
# Outline: as §1
# Gal(b1-6)Gal = biological target: Gal(b1-6)Gal
# Outline: as §1
# Gal3S(b1-3)GalNAc = biological target: Gal3S(b1-3)GalNAc
# Outline: as §1
# Gal3S(b1-3)GlcNAc = biological target: Gal3S(b1-3)GlcNAc
# Outline: as §1
binder,measurement,setting,value
"NanH (Corynebacterium diphtheriae), C6JSW6 (protein) MYSSNRTYSRAILGLSAVLTLSFTSLVAPVNAEEPETVVPATAELEGEVAATLPSAETGLLDAAPPKPVARGAAGDLQLPAVNEKEVFEEGRVIRAPEPDQSRCYRIPALVTAKNGDLLLAFDNRYGGGDGAKTWCRDAPYENMKRINRQNMQTDIQLYRSVDNGQSFEDFGYIAQGTADVRELSYTDPALVTDRTTGKIFAFFVRAYDYRVGQSSAGFNEGDVEAEIQKRDVQDTVVVESLDGGQTWGNMRLLSALTAKVSSISTGDTIFDGRGRFVTSGAGIQLQYGEHAGRLIVPISVDIDPKDSAKFINLAIYSDDHGQTWQAGIGTAGGAGFSGDVSKIVELSDGRLMMSSKDNDKPRWVSYSEDQGENWSTPKRKIIAPPQHPEKHNTGINVGLIRAYPNAPENSAAARVLLYSAPIDQRYSHKHTEDGRNNGWVMGSCDDGKTWSFGRQIEKNRFQYSSMTVMSDGNIGMVYESGDFSTGMNLKFAKFNMAWLGADCHSNEALGLTGDIDKEIVEAQEKAAEATKEAQEAAEKVQKLTEELAAARKENDELKNQVKGFKEAVGDLANEAEDLADKVFKLETAVTEAKEKATVAEKAASDAVTQLQKAESIAEEQKAKAESAAAEAQALREKLERLEGSILTVKENPEAEEIADLSSTAKDAADAARRAATDANGALSGQKQDEEKPAMGLMGILKVLAGIIPLVAIIATIFQTFRLPFNIPGMR",glycan array binding signal (z-score),[1],-0.444
same,glycan array binding signal (z-score),[2],2.29
same,glycan array binding signal (z-score),[3],0.075
same,glycan array binding signal (z-score),[4],-1.54
same,glycan array binding signal (z-score),[5],-0.033
same,glycan array binding signal (z-score),[6],-1.02
same,glycan array binding signal (z-score),[7],0.021
same,glycan array binding signal (z-score),[8],0.04
same,glycan array binding signal (z-score),[9],1.1
same,glycan array binding signal (z-score),[10],1.4
same,glycan array binding signal (z-score),[11],0.424
same,glycan array binding signal (z-score),[12],0.456
same,glycan array binding signal (z-score),[13],0.523
same,glycan array binding signal (z-score),[14],-0.13
same,glycan array binding signal (z-score),[15],1.02
same,glycan array binding signal (z-score),[16],-0.867
same,glycan array binding signal (z-score),[17],-0.499
same,glycan array binding signal (z-score),[18],1.39
same,glycan array binding signal (z-score),[19],1.09
same,glycan array binding signal (z-score),[20],-0.261
same,glycan array binding signal (z-score),[21],-0.141
same,glycan array binding signal (z-score),[22],-0.376
same,glycan array binding signal (z-score),[23],-0.696
same,glycan array binding signal (z-score),[24],-1.14
same,glycan array binding signal (z-score),[25],1.11
same,glycan array binding signal (z-score),[26],-0.974
same,glycan array binding signal (z-score),[27],-1.06
same,glycan array binding signal (z-score),Gal(b1-6)Gal,-0.464
same,glycan array binding signal (z-score),Gal3S(b1-3)GalNAc,0.752
same,glycan array binding signal (z-score),Gal3S(b1-3)GlcNAc,0.008

# 2 neighbouring entries from above, quoted:
binder,measurement,setting,value
"NanH (Corynebacterium diphtheriae), C6JSW6 (protein) MYSSNRTYSRAILGLSAVLTLSFTSLVAPVNAEEPETVVPATAELEGEVAATLPSAETGLLDAAPPKPVARGAAGDLQLPAVNEKEVFEEGRVIRAPEPDQSRCYRIPALVTAKNGDLLLAFDNRYGGGDGAKTWCRDAPYENMKRINRQNMQTDIQLYRSVDNGQSFEDFGYIAQGTADVRELSYTDPALVTDRTTGKIFAFFVRAYDYRVGQSSAGFNEGDVEAEIQKRDVQDTVVVESLDGGQTWGNMRLLSALTAKVSSISTGDTIFDGRGRFVTSGAGIQLQYGEHAGRLIVPISVDIDPKDSAKFINLAIYSDDHGQTWQAGIGTAGGAGFSGDVSKIVELSDGRLMMSSKDNDKPRWVSYSEDQGENWSTPKRKIIAPPQHPEKHNTGINVGLIRAYPNAPENSAAARVLLYSAPIDQRYSHKHTEDGRNNGWVMGSCDDGKTWSFGRQIEKNRFQYSSMTVMSDGNIGMVYESGDFSTGMNLKFAKFNMAWLGADCHSNEALGLTGDIDKEIVEAQEKAAEATKEAQEAAEKVQKLTEELAAARKENDELKNQVKGFKEAVGDLANEAEDLADKVFKLETAVTEAKEKATVAEKAASDAVTQLQKAESIAEEQKAKAESAAAEAQALREKLERLEGSILTVKENPEAEEIADLSSTAKDAADAARRAATDANGALSGQKQDEEKPAMGLMGILKVLAGIIPLVAIIATIFQTFRLPFNIPGMR",glycan array binding signal (z-score),[26],-0.974
same,glycan array binding signal (z-score),[27],-1.06
